Assay results taken from the supplement of paper PMC12067093, “Discovery and optimisation of a covalent ligand for TRIM25 and its application to targeted protein ubiquitination” (Chemical Science, 2025).
This is one part of the list.

Compound: Cc1cc(ccc1-c1ccccc1)C(=O)N1CCCN(CC1)C(=O)CCl [compound 10]
Experiment: probe-labelled cysteine peptide fold change vs DMSO (competition) (log2 fold change); higher = less target engagement (more negative = stronger competition)
Conditions: THP-1, incubation time: 4 h
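Also: competitive profiling in live THP-1 cells: cysteine peptides tagged with an iodoacetamide desthiobiotin (IA-DTB) probe, intensity after compound treatment relative to DMSO-treated cells.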

Row | Target | probe-labelled cysteine peptide fold change (10 µM) | probe-labelled cysteine peptide fold change (50 µM)
1 | IPO13_O94829_848_CGEVESVGK (UniProt O94829) | -0.193 | -0.0957
2 | ITGAM_P11215_654_VCLHVQK (UniProt P11215) | -0.0926 | 0.0983
3 | IQGAP3_Q86VI3_1411_RQACTAQTPEPLRR (UniProt Q86VI3) | -0.0999 | -0.404
4 | IRF2BP1_Q8IU81_239_EQLLALSACAPFNVR (UniProt Q8IU81) | 0.0472 | -0.0907
5 | ISOC2_Q96AB3_136_GLQVHVVVDACSSR (UniProt Q96AB3) | -0.129 | -0.216
6 | IQGAP1_P46940_494_QLSSSVTGLTNIEEENCQR (UniProt P46940) | 0.102 | 0.131
7 | ITGA5_P08648_192_ILEYAPCR (UniProt P08648) | -0.0714 | 0.0714
8 | IQGAP3_Q86VI3_74_LGHCFAPSVVPLK (UniProt Q86VI3) | -0.0108 | 0.0396
9 | IPO7_O95373_504_CLIDDREMPVK (UniProt O95373) | -0.0369 | -0.368
10 | IRF2BP1_Q8IU81_518_ERLEDTHFVQCPSVPGHK (UniProt Q8IU81) | -0.195 | -0.399
11 | ITPK1_Q13572_185_VAHGTNSHEMAIVFNQEGLNAIQPPCVVQNFINHNAVLYK (UniProt Q13572) | 0.199 | 0.389
12 | IP6K1_Q92551_248_KCEQSTSATLGVR (UniProt Q92551) | -0.0618 | -0.363
13 | INTS9_Q9NV88_391_QPCVVFTGHPSLR (UniProt Q9NV88) | 0.193 | 0.147
14 | IPO5_O00410_110_VCDIAAELAR (UniProt O00410) | -0.0382 | 0.102
15 | INTS7_Q9NVH2_618_GIASLTAASTPLNPLSFQCEFVK (UniProt Q9NVH2) | 0.0028 | 0.287
16 | INTS1_Q8N201_1433_SHFLACPLLR (UniProt Q8N201) | -0.0508 | 0.0888
17 | ITGB5_P18084_602_DGQICSER (UniProt P18084) | -0.826 | 0.567
18 | IRAK3_Q9Y616_572_VNIDPSSEAPGHSCR (UniProt Q9Y616) | -0.282 | -0.332
19 | ITGB2_P05107_62_CDTRPQLLMR (UniProt P05107) | -0.0136 | -0.109
20 | INTS2_Q9H0H0_1186+1188_DTGSMDPDVQLCHCIER (UniProt Q9H0H0) | 0.151 | -0.119
21 | IRAK4_Q9NWZ3_13_CLNVGLIR (UniProt Q9NWZ3) | -0.0281 | -0.494

Row | Target | probe-labelled cysteine peptide fold change (10 µM) | probe-labelled cysteine peptide fold change (50 µM)
22 | INPPL1_O15357_1121_SCSVLQMAK (UniProt O15357) | -0.309 | -0.579
23 | IPO7_O95373_736_VLTGVAGEDAECHAAK (UniProt O95373) | -0.0443 | 0.238
24 | INTS6L_Q5JSJ4_745_NCSLSVDDQK (UniProt Q5JSJ4) | -0.173 | 0.108
25 | IRF5_Q13568_44_KLFCIPWR (UniProt Q13568) | -0.151 | -0.786
26 | INTS2_Q9H0H0_272_GMVVEECHLPGLGVALTLDHTK (UniProt Q9H0H0) | 0.141 | 0.36
27 | ITGB2_P05107_445+447_ALGFTDIVTVQVLPQCECR (UniProt P05107) | -0.00166 | -0.199
28 | ISG20L2_Q9H9L3_184_MVAIDCEMVGTGPK (UniProt Q9H9L3) | 0.53 | 0.466
29 | IRF2BP2_Q7Z5L9_65_AHGCFPEGR (UniProt Q7Z5L9) | -0.0806 | -0.143
30 | ITGB2_P05107_467+470_GFLECGICR (UniProt P05107) | 0.141 | -0.357
31 | ITGB2_P05107_198_ECQPPFAFR (UniProt P05107) | -0.0264 | 0.0254
32 | INTS13_Q9NVM9_556_VLECLMACR (UniProt Q9NVM9) | -0.0534 | -0.149
33 | ITPA_Q9BY32_33_FPCTLVAQK (UniProt Q9BY32) | 0.177 | 0.248
34 | ITGB2_P05107_670_DSEGCWVAYTLEQQDGMDR (UniProt P05107) | -0.256 | -0.12
35 | IQGAP1_P46940_45_QNVAYEYLCHLEEAK (UniProt P46940) | 0.176 | 0.235
36 | ITGB1_P05556_555_FCECDNFNCDR (UniProt P05556) | 0.0306 | -0.204
37 | ITGAM_P11215_144_GCPQEDSDIAFLIDGSGSIIPHDFRR (UniProt P11215) | -0.132 | 0.0868
38 | IPO9_Q96P70_545_AIWGYCDQLK (UniProt Q96P70) | 0.0549 | -0.092
39 | IPO4_Q8TEX9_726_KAAHEALGQFCCALHK (UniProt Q8TEX9) | -0.0458 | -0.126
40 | IRF3_Q14653_267_HVLSCLGGGLALWR (UniProt Q14653) | -0.218 | 0.209
41 | ITGB1_P05556_301_LGGIVLPNDGQCHLENNMYTMSHYYDYPSIAHLVQK (UniProt P05556) | -0.126 | 0.0542
42 | IPO5_O00410_1057_IFSIIAEGEMHEAIKHEDPCAKR (UniProt O00410) | -0.391 | -1.01

A section of the results above:
Row | Target | probe-labelled cysteine peptide fold change (10 µM) | probe-labelled cysteine peptide fold change (50 µM)
29 | IRF2BP2_Q7Z5L9_65_AHGCFPEGR (UniProt Q7Z5L9) | -0.0806 | -0.143
30 | ITGB2_P05107_467+470_GFLECGICR (UniProt P05107) | 0.141 | -0.357
31 | ITGB2_P05107_198_ECQPPFAFR (UniProt P05107) | -0.0264 | 0.0254
32 | INTS13_Q9NVM9_556_VLECLMACR (UniProt Q9NVM9) | -0.0534 | -0.149
33 | ITPA_Q9BY32_33_FPCTLVAQK (UniProt Q9BY32) | 0.177 | 0.248
34 | ITGB2_P05107_670_DSEGCWVAYTLEQQDGMDR (UniProt P05107) | -0.256 | -0.12
35 | IQGAP1_P46940_45_QNVAYEYLCHLEEAK (UniProt P46940) | 0.176 | 0.235
36 | ITGB1_P05556_555_FCECDNFNCDR (UniProt P05556) | 0.0306 | -0.204
37 | ITGAM_P11215_144_GCPQEDSDIAFLIDGSGSIIPHDFRR (UniProt P11215) | -0.132 | 0.0868
38 | IPO9_Q96P70_545_AIWGYCDQLK (UniProt Q96P70) | 0.0549 | -0.092
